Results deposited as PubChem BioAssay AID1224828 (NIAID, 2016)

Screen: 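Knock-downs that increase or decrease LPS-induced p65 nuclear translocation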 (primary screen)
Cell system: mouse RAW264.7 G9 macrophage reporter cells (GFP-p65, Tnf promoter-mCherry)
Reagent: siRNA pool against mouse genes, 100 nM
Timing: 2 days siRNA transfection, then 40 min LPS before fixation
Treatment: LPS (Salmonella minnesota R595) at 10 ng/ml
Measured: 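Microscopy ratio of nuclear to perinuclear-ring GFP-p65 signal, scaled to the plate median; gene score is the average of two replicate robust z-scores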
Scale: p65 translocation robust z-score: higher = more nuclear NF-kappaB p65 after LPS than the plate median; nuclear/cytoplasmic p65 ratio: higher = more nuclear NF-kappaB p65
Call rule: 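Active if robust z is above 3.3 (negative regulators) or below -1.56, the Tlr4 control median (positive regulators); activity score 50 or more; control wells not called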
Meaning of the calls: active = hit (p65 shift raised or lowered); inactive = no clear change
The whole screen tested about 17,000 reagents; below is an unselected part. Of all reagents, 762 (4.5%) got an active call. 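Active calls include both raised and lowered p65 entry, mostly lowered; wells with fewer than 50 cells lack a z-score.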 Raw values are not corrected between plates. Unmarked entries are inactive. Reagent sequences are not shown.

Target gene | p65 translocation robust z-score | nuclear/cytoplasmic p65 ratio, rep 1 | nuclear/cytoplasmic p65 ratio, rep 2 | low cell count flag
Fam174a (family with sequence similarity 174, member A) | – | 1.6 | 1.01 | fewer than 50 cells per well; well left out of scoring
Pianp (PILR alpha associated neural protein) | -0.31 | 1.35 | 1.48 | enough cells to score
Gnaq (guanine nucleotide binding protein, alpha q polypeptide) | -0.01 | 1.49 | 1.6 | enough cells to score
Golm1 (golgi membrane protein 1) | -1.56 | 1.28 | 1.44 | enough cells to score
Hyal3 (hyaluronoglucosaminidase 3) | -1.83 (active) | 1.28 | 1.19 | enough cells to score
Nrarp (Notch-regulated ankyrin repeat protein) | 0.37 | 1.81 | 1.55 | enough cells to score
Mcoln1 (mucolipin 1) | -0.28 | 1.41 | 1.3 | enough cells to score
Tmco6 (transmembrane and coiled-coil domains 6) | – | 1.26 | 1.01 | fewer than 50 cells per well; well left out of scoring
Raet1d (retinoic acid early transcript delta) | 0.69 | 1.48 | 1.28 | enough cells to score
Ahcy (S-adenosylhomocysteine hydrolase) | 0.41 | 1.65 | 1.77 | enough cells to score
Ceacam10 (CEA cell adhesion molecule 10) | -0.48 | 1.58 | 1.64 | enough cells to score
C1qtnf3 (C1q and tumor necrosis factor related protein 3) | -1.13 | 1.28 | 1.58 | enough cells to score
Eml3 (echinoderm microtubule associated protein like 3) | -0.26 | 1.54 | 1.8 | enough cells to score
Nrap (nebulin-related anchoring protein) | 0.51 | 1.75 | 1.64 | enough cells to score
Nav3 (neuron navigator 3) | -1.26 | 1.16 | 1.37 | enough cells to score
Zfp691 (zinc finger protein 691) | – | 1.46 | 1.54 | fewer than 50 cells per well; well left out of scoring
Tlr9 (toll-like receptor 9) | 1.09 | 1.63 | 1.71 | enough cells to score
Or5an9 (olfactory receptor family 5 subfamily AN member 9) | – | 1.27 | 1.06 | fewer than 50 cells per well; well left out of scoring
Fmnl1 (formin-like 1) | 0.7 | 1.65 | 1.6 | enough cells to score
Kat2a (K(lysine) acetyltransferase 2A) | – | 1.31 | 1.22 | fewer than 50 cells per well; well left out of scoring
Ints3 (integrator complex subunit 3) | 0.03 | 1.63 | 1.75 | enough cells to score
Cdk5rap3 (CDK5 regulatory subunit associated protein 3) | 0.52 | 1.79 | 1.44 | enough cells to score
Mrnip (MRN complex interacting protein) | – | 1.25 | 1.22 | fewer than 50 cells per well; well left out of scoring
Nrbp2 (nuclear receptor binding protein 2) | 0.47 | 1.73 | 1.47 | enough cells to score
Fbxw4 (F-box and WD-40 domain protein 4) | -0.17 | 1.37 | 1.41 | enough cells to score
Gpkow (G patch domain and KOW motifs) | -1.41 | 1.22 | 1.54 | enough cells to score
Iap (retired record) | -0.64 | 1.48 | 1.32 | enough cells to score
Chrna3 (cholinergic receptor, nicotinic, alpha polypeptide 3) | -2.05 (active) | 1.2 | 1.12 | enough cells to score
Ngrn (neugrin, neurite outgrowth associated) | -0.78 | 1.46 | 1.42 | enough cells to score
Dcdc5 (doublecortin domain containing 5) | – | 1.18 | 1.26 | fewer than 50 cells per well; well left out of scoring
Gm56926 (predicted gene, 56926) | -0.81 | 1.52 | 1.64 | enough cells to score
Tpbg (trophoblast glycoprotein) | 0.03 | 1.57 | 1.48 | enough cells to score
Ecd (ecdysoneless cell cycle regulator) | -0.34 | 1.49 | 1.63 | enough cells to score
Zfp955a (zinc finger protein 955A) | -0.72 | 1.26 | 1.22 | enough cells to score
Polr2m (polymerase (RNA) II (DNA directed) polypeptide M) | 0.42 | 1.52 | 1.4 | enough cells to score
Hs6st2 (heparan sulfate 6-O-sulfotransferase 2) | -0.45 | 1.65 | 1.42 | enough cells to score
St6galnac6 | 0.19 | 1.41 | 1.29 | enough cells to score
Asic1 (acid-sensing ion channel 1) | 1.8 | 1.86 | 1.98 | enough cells to score
Hint1 (histidine triad nucleotide binding protein 1) | 1.37 | 1.58 | 1.58 | enough cells to score
Uts2r (urotensin 2 receptor) | 0.68 | 1.63 | 1.66 | enough cells to score
D630029K05Rik (RIKEN cDNA D630029K05 gene) | -0.91 | 1.35 | 1.51 | enough cells to score
Mvk (mevalonate kinase) | -1.49 | 1.35 | 1.19 | enough cells to score
Iqcf4 (IQ motif containing F4) | -0.38 | 1.2 | 1.37 | enough cells to score
Fah (fumarylacetoacetate hydrolase) | 1.21 | 1.56 | 1.58 | enough cells to score
Scml4 (Scm polycomb group protein like 4) | -0.04 | 1.43 | 1.2 | enough cells to score
Tmem98 (transmembrane protein 98) | 0.3 | 1.67 | 1.65 | enough cells to score
Or2ak7 (olfactory receptor family 2 subfamily AK member 7) | – | 1.32 | 1.12 | fewer than 50 cells per well; well left out of scoring
Mzf1 (myeloid zinc finger 1) | 0.74 | 1.68 | 1.55 | enough cells to score
Sorbs3 (sorbin and SH3 domain containing 3) | 0.95 | 1.73 | 1.65 | enough cells to score
Engase (endo-beta-N-acetylglucosaminidase) | 1.93 | 1.83 | 1.52 | enough cells to score
Nudt4 (nudix hydrolase 4) | -0.87 | 1.36 | 1.28 | enough cells to score
B4galnt2 (beta-1,4-N-acetyl-galactosaminyl transferase 2) | 1.11 | 1.74 | 1.45 | enough cells to score
Hdgfl3 (HDGF like 3) | -0.29 | 1.71 | 1.4 | enough cells to score
Fgf5 (fibroblast growth factor 5) | -0.41 | 1.28 | 1.41 | enough cells to score
Xcr1 (chemokine (C motif) receptor 1) | 0.88 | 1.55 | 1.8 | enough cells to score
Oaz1 (ornithine decarboxylase antizyme 1) | -0.22 | 1.47 | 1.34 | enough cells to score
Hacl1 (2-hydroxyacyl-CoA lyase 1) | 0.85 | 1.66 | 1.56 | enough cells to score
Flot1 (flotillin 1) | -1.46 | 1.31 | 1.33 | enough cells to score
Zmynd19 (zinc finger, MYND domain containing 19) | -1.08 | 1.39 | 1.12 | enough cells to score
